Experimental data reported in US20240269242A1.
These are yes or no findings as the source states them, for the method shown. Some entries that bind do so weakly or less than the wild type.

Sequences of proteins named here, by UniProt entry; tags and fusion partners are left off. Residues count along the entry.
UniProt Q9BYF1, residues 18-805: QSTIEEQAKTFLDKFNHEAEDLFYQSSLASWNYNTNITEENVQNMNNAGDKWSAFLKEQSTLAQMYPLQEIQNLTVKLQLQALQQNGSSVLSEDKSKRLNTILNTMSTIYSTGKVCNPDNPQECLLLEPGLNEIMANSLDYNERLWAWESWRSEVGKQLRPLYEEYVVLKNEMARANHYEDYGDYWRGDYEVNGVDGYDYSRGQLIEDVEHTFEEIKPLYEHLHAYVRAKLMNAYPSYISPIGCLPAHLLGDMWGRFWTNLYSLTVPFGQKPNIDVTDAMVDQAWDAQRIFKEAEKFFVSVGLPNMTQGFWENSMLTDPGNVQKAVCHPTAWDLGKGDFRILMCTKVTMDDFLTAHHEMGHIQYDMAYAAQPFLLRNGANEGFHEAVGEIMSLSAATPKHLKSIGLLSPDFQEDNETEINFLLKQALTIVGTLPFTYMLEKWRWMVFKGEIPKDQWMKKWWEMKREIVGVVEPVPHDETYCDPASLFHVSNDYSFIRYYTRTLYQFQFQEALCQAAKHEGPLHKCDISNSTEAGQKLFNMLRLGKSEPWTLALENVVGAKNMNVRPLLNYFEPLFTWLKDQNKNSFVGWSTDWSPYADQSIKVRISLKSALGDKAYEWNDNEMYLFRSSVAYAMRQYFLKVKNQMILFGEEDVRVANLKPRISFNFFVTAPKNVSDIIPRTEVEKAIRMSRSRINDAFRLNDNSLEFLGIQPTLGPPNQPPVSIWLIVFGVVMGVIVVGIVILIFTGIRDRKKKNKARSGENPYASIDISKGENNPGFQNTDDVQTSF

Experiments:
[1] = biological target: ACE2 in lysates from HEK293T cells transfected with ACE2-expressing plasmids (UniProt Q9BYF1); experiment: competition ELISA: soluble peptide against plate-bound SP-A for ACE2 lysate
[2] = biological target: ACE2 in lysates from HEK293T cells transfected with ACE2-expressing plasmids (UniProt Q9BYF1); experiment: competition ELISA: soluble competitor against plate-bound SP-A for ACE2 lysate

binding [1]: binds
binding [2]: binds
Binder: PAGRGKEKCVEMYTDGQWND [SP-A 223K containing 20-mer peptide]
